These are yes or no findings as the source states them, for the method shown. Binding seen in cells or lysates may run through a third protein. A result given as binding can be weak or reduced; the word gives no strength.

By UniProt entry, the sequences of proteins in these tests, tags left out. Where a name states a change or a piece, a line headed by the entry shows the natural chain unless it says otherwise.
UniProt A0A125YQD4: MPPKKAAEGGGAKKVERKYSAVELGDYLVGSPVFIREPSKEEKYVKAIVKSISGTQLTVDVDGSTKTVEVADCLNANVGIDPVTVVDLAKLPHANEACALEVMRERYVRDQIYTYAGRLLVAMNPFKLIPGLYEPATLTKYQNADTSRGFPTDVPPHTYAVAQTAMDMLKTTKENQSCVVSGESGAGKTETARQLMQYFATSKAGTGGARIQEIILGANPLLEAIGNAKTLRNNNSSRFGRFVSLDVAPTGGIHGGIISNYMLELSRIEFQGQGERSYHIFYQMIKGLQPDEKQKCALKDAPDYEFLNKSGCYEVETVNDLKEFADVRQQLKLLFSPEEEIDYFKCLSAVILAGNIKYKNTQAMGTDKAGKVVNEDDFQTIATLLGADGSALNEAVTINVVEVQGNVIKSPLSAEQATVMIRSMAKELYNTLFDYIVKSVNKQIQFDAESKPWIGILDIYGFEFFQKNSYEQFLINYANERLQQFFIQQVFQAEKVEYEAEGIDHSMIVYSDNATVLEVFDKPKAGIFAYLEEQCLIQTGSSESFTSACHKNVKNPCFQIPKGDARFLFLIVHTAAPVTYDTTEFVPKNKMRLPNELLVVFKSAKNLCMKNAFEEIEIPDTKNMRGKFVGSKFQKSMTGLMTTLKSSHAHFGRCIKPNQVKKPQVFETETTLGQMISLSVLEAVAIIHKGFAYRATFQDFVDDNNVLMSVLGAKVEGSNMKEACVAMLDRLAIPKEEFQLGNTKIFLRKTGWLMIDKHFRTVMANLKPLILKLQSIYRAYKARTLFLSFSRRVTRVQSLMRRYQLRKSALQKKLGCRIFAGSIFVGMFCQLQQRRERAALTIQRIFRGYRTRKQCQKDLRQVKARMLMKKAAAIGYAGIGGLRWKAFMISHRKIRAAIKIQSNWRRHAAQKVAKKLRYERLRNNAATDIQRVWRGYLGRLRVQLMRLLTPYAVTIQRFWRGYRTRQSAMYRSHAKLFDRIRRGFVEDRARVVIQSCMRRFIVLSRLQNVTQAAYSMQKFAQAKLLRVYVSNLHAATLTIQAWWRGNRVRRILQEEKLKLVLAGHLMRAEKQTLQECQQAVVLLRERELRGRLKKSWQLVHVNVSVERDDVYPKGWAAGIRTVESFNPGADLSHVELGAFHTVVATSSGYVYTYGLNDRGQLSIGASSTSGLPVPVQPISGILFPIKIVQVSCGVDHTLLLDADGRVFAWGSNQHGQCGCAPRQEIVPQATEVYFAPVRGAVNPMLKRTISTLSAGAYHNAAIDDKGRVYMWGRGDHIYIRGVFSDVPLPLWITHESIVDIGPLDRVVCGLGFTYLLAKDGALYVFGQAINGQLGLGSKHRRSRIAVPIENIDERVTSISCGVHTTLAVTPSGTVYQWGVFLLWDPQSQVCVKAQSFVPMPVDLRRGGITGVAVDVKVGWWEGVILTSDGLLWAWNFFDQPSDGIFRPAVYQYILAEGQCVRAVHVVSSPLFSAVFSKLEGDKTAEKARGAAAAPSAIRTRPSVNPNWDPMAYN

This is an account of results in publication PMC4711953.

For this assay, the target named is MLC5-3Ty (T. gondii myosin light chain 5 tagged at the endogenous locus) (Toxoplasma gondii). As to the kind of experiment: co-IP; anti-Ty antibodies on MLC5-3Ty and MLC7-3Ty strains; silver stained SDS-PAGE gel; bands at the size of MyoH cut and identified by mass spectrometry; stringent co-IP conditions.

“Toxoplasma gondii myosin H (endogenous, untagged) (from UniProt A0A125YQD4)”: the binding result is recorded as “binds”.
